Test results reported in the supplement of paper PMC10331698.
± gives the standard deviation of the averaged measurements. Most values lie at the level of the controls, where differences are scatter.

What was measured:
Test in all cases: level (log10 ratio to DMSO vehicle control); higher = higher biomarker level / cell amount than vehicle control
[1] = compound: CN(C(=O)C(F)(F)C(F)(F)C(F)(F)F)[Si](C)(C)C [N-Methyl-N-trimethylsilylheptafluorobutyramide]; settings: 2200 nM; in DMSO
Method: (§1)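 BioMAP Diversity Plus panel of 12 human primary cell co-culture systems (3C, 4H, LPS, SAg, BT, BF4T, BE3C, CASM3C, HDF3CGF, KF3CT, MyoF, Mphg). Compounds were added 1 h before stimulation and left for 24 h (MyoF 48 h; BT 72 h for soluble read-outs or 6 d for IgG). Biomarkers were read by ELISA, cytotoxicity by SRB, PBMC viability and proliferation by Alamar Blue. Each well value was divided by the mean of 8 DMSO control wells on the same plate and log10 transformed; duplicate blinded samples were tested at 4 concentrations.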

[2] = compound: O=C(O)C(F)(F)C(F)(F)C(F)(F)C(F)(F)F [Perfluoropentanoic acid]; settings: in DMSO
Method: as §1

[3] = compound: O=C(O)C(F)(F)C(F)(F)C(F)(F)C(F)(F)C(F)(F)C(F)(F)C(F)(F)C(F)(F)C(F)(F)C(F)F [11-H-Perfluoroundecanoic acid]; settings: 2200 nM; in DMSO
Method: as §1

[4] = compound: NCC(F)(F)C(F)(F)C(F)(F)C(F)(F)C(F)(F)C(F)(F)C(F)(F)F [1H,1H-Perfluorooctylamine]; settings: 2200 nM; in DMSO
Method: as §1

[5] = compound: FC(F)(F)C(F)(F)C(F)(F)C(F)(F)C(F)(F)C(F)(F)CC1CO1 [3-(Perfluorohexyl)-1,2-epoxypropane]; settings: 2200 nM; in DMSO
Method: as §1

[6] = compound: NC(=O)C(F)(F)C(F)(F)C(F)(F)F [Heptafluorobutyramide]; settings: 2200 nM; in DMSO
Method: as §1

[7] = compound: O=C(O)C(F)(F)C(F)(F)C(F)(F)C(F)(F)C(F)(F)C(F)(F)F [Perfluoroheptanoic acid]; settings: in DMSO
Method: as §1

[8] = compound: OCC(F)(F)C(F)(F)C(F)(F)F [1H,1H-Heptafluorobutanol]; settings: 2200 nM; in DMSO
Method: as §1

[9] = compound: CC(C)(C)C(=O)CC(=O)C(F)(F)C(F)(F)C(F)(F)F [(Heptafluorobutanoyl)pivaloylmethane]; settings: 2200 nM; in DMSO
Method: as §1

[10] = compound: CCN(CCO)S(=O)(=O)C(F)(F)C(F)(F)C(F)(F)C(F)(F)C(F)(F)C(F)(F)C(F)(F)C(F)(F)F [N-Ethyl-N-(2-hydroxyethyl)perfluorooctanesulfonamide]; settings: in DMSO
Method: as §1

[11] = compound: OCCC(F)(F)C(F)(F)C(F)(F)C(F)(F)C(F)(F)C(F)(F)F [6:2 Fluorotelomer alcohol]; settings: 2200 nM; in DMSO
Method: as §1

[12] = compound: O=C(O)C(F)(F)C(F)(F)C(F)(F)OC(F)(F)F [Perfluoro(4-methoxybutanoic) acid]; settings: 2200 nM; in DMSO
Method: as §1

[13] = compound: Cc1ccc(S(=O)(=O)OCC(F)(F)C(F)(F)C(F)(F)C(F)(F)C(F)(F)C(F)F)cc1 [1H,1H,7H-Perfluoroheptyl 4-methylbenzenesulfonate]; settings: 2200 nM; in DMSO
Method: as §1

[14] = compound: O=S(=O)(O)CCC(F)(F)C(F)(F)C(F)(F)C(F)(F)C(F)(F)C(F)(F)C(F)(F)C(F)(F)F [8:2 Fluorotelomer sulfonic acid]; settings: in DMSO
Method: as §1

[15] = compound: O=C(O)C(F)(F)C(F)(F)C(F)(F)C(F)(F)C(=O)O [Octafluoroadipic acid]; settings: 2200 nM; in DMSO
Method: as §1

[16] = compound: CCCCCCCCC(F)(F)C(F)(F)C(F)(F)C(F)(F)C(F)(F)C(F)(F)F [1-(Perfluorohexyl)octane]; settings: in DMSO
Method: as §1

## BT:sIL-17A
[1]
  level (log10): -0.013 ± 0.011
[2]; 2200 nM
  level (log10): -0.041 ± 0.13
[2]; 6700 nM
  level (log10): 0.0585 ± 0.042
[2]; 20000 nM
  level (log10): -0.0535 ± 0.0078
[2]; 60000 nM
  level (log10): 0.055 ± 0.13
[3]
  level (log10): -0.072 ± 0.028
[4]
  level (log10): 0.0845 ± 0.013
[5]
  level (log10): -0.0825 ± 0.039
[6]
  level (log10): -0.125 ± 0.099
[7]; 2200 nM
  level (log10): 0.07 ± 0.098
[7]; 6700 nM
  level (log10): 0.047 ± 0.027
[7]; 20000 nM
  level (log10): 0.0865 ± 0.16
[7]; 60000 nM
  level (log10): -0.0095 ± 0.22
[8]
  level (log10): 0.052 ± 0.035
[9]
  level (log10): -0.166 ± 0.18
[10]; 2200 nM
  level (log10): 0.094 ± 0.15
[10]; 6700 nM
  level (log10): 0.122 ± 0.083
[10]; 20000 nM
  level (log10): -0.631 ± 0.21
[11]
  level (log10): -0.0085 ± 0.066
[12]
  level (log10): -0.032 ± 0.061
[13]
  level (log10): 0.0175 ± 0.049
[14]; 2200 nM
  level (log10): -0.053 ± 0.17
[14]; 6700 nM
  level (log10): -0.152 ± 0.057
[14]; 20000 nM
  level (log10): -0.012 ± 0.013
[14]; 60000 nM
  level (log10): -0.0805 ± 0.16
[15]
  level (log10): 0.0635 ± 0.12
[16]; 740 nM
  level (log10): 0.0075 ± 0.0064
[16]; 2200 nM
  level (log10): 0.113 ± 0.13

## SAg:CCL2/MCP-1
[1]
  level (log10): 0.001 ± 0.034
[2]; 2200 nM
  level (log10): -0.003 ± 0.023
[2]; 6700 nM
  level (log10): 0.0085 ± 0.021
[2]; 20000 nM
  level (log10): -0.0205 ± 0.011
[2]; 60000 nM
  level (log10): 0.023 ± 0.031
[3]
  level (log10): 0.0065 ± 0.033
[4]
  level (log10): -0.0195 ± 0.0035
[5]
  level (log10): -0.0025 ± 0.013
[6]
  level (log10): 0.012 ± 0.03
[7]; 2200 nM
  level (log10): 0.01 ± 0.0014
[7]; 6700 nM
  level (log10): -0.013 ± 0.0085
[7]; 20000 nM
  level (log10): 0.0215 ± 0.011
[7]; 60000 nM
  level (log10): 0.0215 ± 0.013
[8]
  level (log10): 0.0195 ± 0.0092
[9]
  level (log10): 0.0015 ± 0.03
[10]; 2200 nM
  level (log10): -0.017 ± 0.0014
[10]; 6700 nM
  level (log10): -0.0055 ± 0.005
[10]; 20000 nM
  level (log10): -0.091 ± 0.023
[11]
  level (log10): 0.0135 ± 0.032
[12]
  level (log10): 0.0295 ± 0.032
[13]
  level (log10): 0.0085 ± 0.029
[14]; 2200 nM
  level (log10): 0.018 ± 0.0057
[14]; 6700 nM
  level (log10): -0.0035 ± 0.019
[14]; 20000 nM
  level (log10): 0 ± 0.0099
[14]; 60000 nM
  level (log10): -0.0025 ± 0.0078
[15]
  level (log10): 0.0105 ± 0.044
[16]; 740 nM
  level (log10): -0.0025 ± 0.042
[16]; 2200 nM
  level (log10): -0.011 ± 0.0014
